Test results published in PMC10099996 (Chembiochem, 2022).
≈ marks a conversion by molar mass, not a printed value.

Test system: B. subtilis 168
Assay: MIC determination
Type: cell-based
Settings: Table 1; lysogeny broth (LB) supplemented with 0.3 mM ZnSO4; 37 °C, 18 h; visual inspection; median of a minimum of triplicates

With CN[C@H](CC(C)C)C(=O)N[C@H]1C(=O)N[C@@H](CC(N)=O)C(=O)N[C@H]2C(=O)N[C@H]3C(=O)N[C@H](C(=O)N[C@H](C(=O)O)c4cc(O)cc(O)c4-c4cc3ccc4O)[C@H](O)c3ccc(c(Cl)c3)Oc3cc2cc(c3O[C@@H]2O[C@H](CO)[C@@H](O)[C@H](O)[C@H]2O[C@H]2C[C@](C)(N)[C@H](O)[C@H](C)O2)Oc2ccc(cc2Cl)[C@H]1O [Vancomycin] the “MIC B. subtilis 168” value was 0.25 µg/mL (≈ 0.173 µM).
